{"source": "patent US20160074488A1", "binders": {"B1": {"name": "βTail-dsRED monomer (protein)", "chain": "MALKVELEKLKSELVVLHSHLEKLKSELGSGGGGSGGGGSGGGGGGGSGGGGSGGGGSGGGGSSDDNTEDVIKEFMQFKVRMEGSVNGHYFEIEGEGEGKPYEGTQTAKLQVTKGGPLPFAWDILSPQFQYGSKAYVKHPADIPDYMKLSFPEGFTWERSMNFEDGGVVEVQQDSSLQDGTFIYKVKFKGVNFPADGPVMQKKTAGWEPSTEKLYPQDGVLKGEISHALKLKDGGHYTCDFKTVYKAKKPVQLPGNHYVDSKLDITNHNEDYTVVEQYEHAEARHSGSQHHHHHH"}}, "target": "T1, Q11 β-sheet fibrillizing peptide (assembled as Q11 nanofibers, gels or microgels)", "T1 sequence (peptide)": "QQKFQFQFEQQ", "experiment": "fluorescence microscopy of Q11 microgels", "note": "These are yes or no findings as the source states them, for the method shown. Some binding calls cover weakened binding; strength is not graded here."}
{"binder": "B1", "values": [{"measurement": "binding", "value": "binds"}]}
